Reference: publication PMC4976216
Results are given in words; binding and its absence hold for the method and conditions named. Some results given as binding are weak or reduced against the parent protein; the word gives no strength. Sequences can lack the tags named with a protein.

What was measured:
GST-CGNaa355-579 = target: T1, GST-CGNaa355-579 (UniProt Q9P2M7); assay: pull-down; glutathione beads coated with 10 μg GST fusion protein, soluble recombinant 6His-FIP5; 50 mM HEPES pH 7.4, 150 mM NaCl, 5 mM MgCl2, 0.1% Triton X-100, 0.1% BSA, 1 mM PMSF; 25 °C, 1 h; Coomassie stained SDS-PAGE; both purified
T1 sequence: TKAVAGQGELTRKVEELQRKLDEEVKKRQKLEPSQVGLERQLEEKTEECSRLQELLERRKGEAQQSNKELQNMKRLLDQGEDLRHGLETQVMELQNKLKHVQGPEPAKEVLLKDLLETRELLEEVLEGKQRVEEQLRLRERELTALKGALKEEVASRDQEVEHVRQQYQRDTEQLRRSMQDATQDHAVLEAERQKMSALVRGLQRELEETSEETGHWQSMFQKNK

Full-length 6His-FIP5 = target: T2, Full-length 6His-FIP5 (UniProt Q9BXF6); assay: co-IP; purified recombinant 6His-FIP5 and 6His-CGN, precipitated with anti-FIP5 antibody; immunoblots with anti-CGN and anti-FIP5; both purified
T2 sequence: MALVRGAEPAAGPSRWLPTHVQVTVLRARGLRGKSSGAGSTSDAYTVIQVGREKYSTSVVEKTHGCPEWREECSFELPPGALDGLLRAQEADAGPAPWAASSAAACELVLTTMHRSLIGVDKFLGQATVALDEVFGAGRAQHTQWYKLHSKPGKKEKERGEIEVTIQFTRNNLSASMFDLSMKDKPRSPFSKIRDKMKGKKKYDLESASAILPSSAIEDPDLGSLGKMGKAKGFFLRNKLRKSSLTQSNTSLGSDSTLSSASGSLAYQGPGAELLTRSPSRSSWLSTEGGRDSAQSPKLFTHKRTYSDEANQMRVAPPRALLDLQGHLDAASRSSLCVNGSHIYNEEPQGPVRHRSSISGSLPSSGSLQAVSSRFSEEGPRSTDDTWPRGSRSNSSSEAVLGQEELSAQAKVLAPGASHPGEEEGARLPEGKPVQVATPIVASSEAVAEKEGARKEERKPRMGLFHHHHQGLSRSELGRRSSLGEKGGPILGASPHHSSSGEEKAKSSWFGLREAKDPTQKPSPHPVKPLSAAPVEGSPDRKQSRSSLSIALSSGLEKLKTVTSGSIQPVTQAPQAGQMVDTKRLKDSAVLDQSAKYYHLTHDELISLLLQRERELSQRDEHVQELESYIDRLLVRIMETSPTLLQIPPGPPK

Binder | binding (GST-CGNaa355-579) | binding (Full-length 6His-FIP5)
Full-length 6His-FIP5 (protein, UniProt Q9BXF6 1-653) MALVRGAEPAAGPSRWLPTHVQVTVLRARGLRGKSSGAGSTSDAYTVIQVGREKYSTSVVEKTHGCPEWREECSFELPPGALDGLLRAQEADAGPAPWAASSAAACELVLTTMHRSLIGVDKFLGQATVALDEVFGAGRAQHTQWYKLHSKPGKKEKERGEIEVTIQFTRNNLSASMFDLSMKDKPRSPFSKIRDKMKGKKKYDLESASAILPSSAIEDPDLGSLGKMGKAKGFFLRNKLRKSSLTQSNTSLGSDSTLSSASGSLAYQGPGAELLTRSPSRSSWLSTEGGRDSAQSPKLFTHKRTYSDEANQMRVAPPRALLDLQGHLDAASRSSLCVNGSHIYNEEPQGPVRHRSSISGSLPSSGSLQAVSSRFSEEGPRSTDDTWPRGSRSNSSSEAVLGQEELSAQAKVLAPGASHPGEEEGARLPEGKPVQVATPIVASSEAVAEKEGARKEERKPRMGLFHHHHQGLSRSELGRRSSLGEKGGPILGASPHHSSSGEEKAKSSWFGLREAKDPTQKPSPHPVKPLSAAPVEGSPDRKQSRSSLSIALSSGLEKLKTVTSGSIQPVTQAPQAGQMVDTKRLKDSAVLDQSAKYYHLTHDELISLLLQRERELSQRDEHVQELESYIDRLLVRIMETSPTLLQIPPGPPK | binds | –
Full-length 6His-CGN (protein, UniProt Q9P2M7 1-1203) MEQAPNMAEPRGPVDHGVQIRFITEPVSGAEMGTLRRGGRRPAKDARASTYGVAVRVQGIAGQPFVVLNSGEKGGDSFGVQIKGANDQGASGALSSDLELPENPYSQVKGFPAPSQSSTSDEEPGAYWNGKLLRSHSQASLAGPGPVDPSNRSNSMLELAPKVASPGSTIDTAPLSSVDSLINKFDSQLGGQARGRTGRRTRMLPPEQRKRSKSLDSRLPRDTFEERERQSTNHWTSSTKYDNHVGTSKQPAQSQNLSPLSGFSRSRQTQDWVLQSFEEPRRSAQDPTMLQFKSTPDLLRDQQEAAPPGSVDHMKATIYGILREGSSESETSVRRKVSLVLEKMQPLVMVSSGSTKAVAGQGELTRKVEELQRKLDEEVKKRQKLEPSQVGLERQLEEKTEECSRLQELLERRKGEAQQSNKELQNMKRLLDQGEDLRHGLETQVMELQNKLKHVQGPEPAKEVLLKDLLETRELLEEVLEGKQRVEEQLRLRERELTALKGALKEEVASRDQEVEHVRQQYQRDTEQLRRSMQDATQDHAVLEAERQKMSALVRGLQRELEETSEETGHWQSMFQKNKEDLRATKQELLQLRMEKEEMEEELGEKIEVLQRELEQARASAGDTRQVEVLKKELLRTQEELKELQAERQSQEVAGRHRDRELEKQLAVLRVEADRGRELEEQNLQLQKTLQQLRQDCEEASKAKMVAEAEATVLGQRRAAVETTLRETQEENDEFRRRILGLEQQLKETRGLVDGGEAVEARLRDKLQRLEAEKQQLEEALNASQEEEGSLAAAKRALEARLEEAQRGLARLGQEQQTLNRALEEEGKQREVLRRGKAELEEQKRLLDRTVDRLNKELEKIGEDSKQALQQLQAQLEDYKEKARREVADAQRQAKDWASEAEKTSGGLSRLQDEIQRLRQALQASQAERDTARLDKELLAQRLQGLEQEAENKKRSQDDRARQLKGLEEKVSRLETELDEEKNTVELLTDRVNRGRDQVDQLRTELMQERSARQDLECDKISLERQNKDLKTRLASSEGFQKPSASLSQLESQNQLLQERLQAEEREKTVLQSTNRKLERKVKELSIQIEDERQHVNDQKDQLSLRVKALKRQVDEAEEEIERLDGLRKKAQREVEEQHEVNEQLQARIKSLEKDSWRKASRSAAESALKNEGLSSDEEFDSVYDPSSIASLLTESNLQTSSC | – | binds
